Laboratory results: the supplement of paper PMC6411743
± gives the standard deviation of the averaged measurements. The list shows a part of the results.

Amino acid sequences for entries named in this document (tags omitted). A change or cut given only in a name is not applied to a line headed by its entry.
UniProt Q9Y4K4: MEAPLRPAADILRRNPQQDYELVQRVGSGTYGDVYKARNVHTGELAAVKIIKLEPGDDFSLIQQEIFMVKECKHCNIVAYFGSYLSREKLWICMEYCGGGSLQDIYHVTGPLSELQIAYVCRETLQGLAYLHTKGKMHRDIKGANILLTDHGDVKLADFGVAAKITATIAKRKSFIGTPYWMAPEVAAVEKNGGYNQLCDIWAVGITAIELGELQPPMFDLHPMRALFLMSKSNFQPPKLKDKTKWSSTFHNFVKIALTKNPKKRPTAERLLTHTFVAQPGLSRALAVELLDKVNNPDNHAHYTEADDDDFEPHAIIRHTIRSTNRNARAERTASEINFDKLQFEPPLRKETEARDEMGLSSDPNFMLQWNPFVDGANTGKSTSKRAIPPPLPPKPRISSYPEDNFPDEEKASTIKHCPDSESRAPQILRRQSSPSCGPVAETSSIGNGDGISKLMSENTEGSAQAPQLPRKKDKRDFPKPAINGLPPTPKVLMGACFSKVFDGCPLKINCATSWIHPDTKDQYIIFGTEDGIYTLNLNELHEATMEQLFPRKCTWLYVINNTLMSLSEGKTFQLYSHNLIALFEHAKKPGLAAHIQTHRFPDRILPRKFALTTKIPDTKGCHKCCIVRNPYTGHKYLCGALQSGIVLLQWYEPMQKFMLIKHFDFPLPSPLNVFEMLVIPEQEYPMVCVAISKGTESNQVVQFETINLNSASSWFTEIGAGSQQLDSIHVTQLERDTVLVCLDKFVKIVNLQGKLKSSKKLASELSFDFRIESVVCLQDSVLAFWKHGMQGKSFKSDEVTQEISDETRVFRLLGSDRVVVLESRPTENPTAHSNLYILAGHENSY
UniProt Q5TBB1: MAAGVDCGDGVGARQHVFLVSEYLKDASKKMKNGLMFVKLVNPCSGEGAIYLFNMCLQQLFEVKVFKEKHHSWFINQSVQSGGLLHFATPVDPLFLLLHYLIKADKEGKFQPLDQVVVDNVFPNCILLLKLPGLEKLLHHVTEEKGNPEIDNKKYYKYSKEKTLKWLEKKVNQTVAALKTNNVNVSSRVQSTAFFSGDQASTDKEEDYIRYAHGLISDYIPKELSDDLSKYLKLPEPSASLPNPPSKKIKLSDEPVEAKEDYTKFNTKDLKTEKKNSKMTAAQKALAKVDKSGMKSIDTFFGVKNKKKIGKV
UniProt O15213: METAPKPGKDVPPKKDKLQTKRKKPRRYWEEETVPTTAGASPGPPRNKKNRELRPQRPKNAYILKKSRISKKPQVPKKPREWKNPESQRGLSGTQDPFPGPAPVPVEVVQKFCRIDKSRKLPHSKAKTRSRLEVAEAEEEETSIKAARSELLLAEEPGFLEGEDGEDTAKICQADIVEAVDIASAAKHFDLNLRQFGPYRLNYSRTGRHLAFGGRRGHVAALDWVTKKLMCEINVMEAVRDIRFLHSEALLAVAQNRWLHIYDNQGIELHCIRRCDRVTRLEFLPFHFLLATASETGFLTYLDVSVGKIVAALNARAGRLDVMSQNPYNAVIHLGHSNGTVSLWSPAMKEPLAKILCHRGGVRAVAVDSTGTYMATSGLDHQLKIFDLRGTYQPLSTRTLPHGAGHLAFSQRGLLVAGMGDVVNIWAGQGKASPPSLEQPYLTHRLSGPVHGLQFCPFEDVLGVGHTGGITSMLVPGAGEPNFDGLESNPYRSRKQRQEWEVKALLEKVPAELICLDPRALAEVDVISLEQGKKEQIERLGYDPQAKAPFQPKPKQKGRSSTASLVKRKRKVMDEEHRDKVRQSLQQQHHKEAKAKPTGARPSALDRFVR
UniProt Q9NY35: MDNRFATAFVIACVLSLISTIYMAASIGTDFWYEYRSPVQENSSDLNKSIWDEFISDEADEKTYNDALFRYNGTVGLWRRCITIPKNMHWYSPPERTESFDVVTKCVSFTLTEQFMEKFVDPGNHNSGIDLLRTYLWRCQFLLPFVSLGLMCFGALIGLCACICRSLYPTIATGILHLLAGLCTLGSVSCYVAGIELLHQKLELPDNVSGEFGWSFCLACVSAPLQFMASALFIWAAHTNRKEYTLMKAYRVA
UniProt Q9HB19: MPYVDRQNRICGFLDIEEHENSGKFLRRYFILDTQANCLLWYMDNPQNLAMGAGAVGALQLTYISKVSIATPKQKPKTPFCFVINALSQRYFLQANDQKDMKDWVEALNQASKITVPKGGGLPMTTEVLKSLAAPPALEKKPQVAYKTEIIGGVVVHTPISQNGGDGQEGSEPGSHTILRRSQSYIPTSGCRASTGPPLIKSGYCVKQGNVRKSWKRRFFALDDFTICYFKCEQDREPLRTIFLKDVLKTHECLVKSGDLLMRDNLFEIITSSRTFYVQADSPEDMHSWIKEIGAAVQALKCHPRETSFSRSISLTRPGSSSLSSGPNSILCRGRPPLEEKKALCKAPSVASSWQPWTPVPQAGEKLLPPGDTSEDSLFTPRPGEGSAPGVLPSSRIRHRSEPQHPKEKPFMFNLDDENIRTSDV
UniProt Q9BVL4, whole entry: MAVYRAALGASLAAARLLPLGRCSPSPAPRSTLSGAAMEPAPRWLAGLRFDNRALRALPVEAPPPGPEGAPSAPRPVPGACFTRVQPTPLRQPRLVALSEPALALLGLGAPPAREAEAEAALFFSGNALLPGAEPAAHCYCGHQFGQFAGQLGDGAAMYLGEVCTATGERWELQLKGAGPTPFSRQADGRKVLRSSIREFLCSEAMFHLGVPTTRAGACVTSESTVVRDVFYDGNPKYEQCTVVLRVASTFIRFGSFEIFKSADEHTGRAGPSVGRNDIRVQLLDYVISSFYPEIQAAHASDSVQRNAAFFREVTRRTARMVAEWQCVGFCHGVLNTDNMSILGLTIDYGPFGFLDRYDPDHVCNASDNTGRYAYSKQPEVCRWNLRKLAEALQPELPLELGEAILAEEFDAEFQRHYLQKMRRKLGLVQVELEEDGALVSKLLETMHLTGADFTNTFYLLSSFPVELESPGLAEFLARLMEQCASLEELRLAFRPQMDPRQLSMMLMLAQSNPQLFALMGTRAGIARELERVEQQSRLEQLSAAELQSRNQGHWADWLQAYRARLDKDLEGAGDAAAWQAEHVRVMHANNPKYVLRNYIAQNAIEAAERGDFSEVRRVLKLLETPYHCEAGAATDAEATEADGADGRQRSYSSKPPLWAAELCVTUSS
UniProt Q5VT25: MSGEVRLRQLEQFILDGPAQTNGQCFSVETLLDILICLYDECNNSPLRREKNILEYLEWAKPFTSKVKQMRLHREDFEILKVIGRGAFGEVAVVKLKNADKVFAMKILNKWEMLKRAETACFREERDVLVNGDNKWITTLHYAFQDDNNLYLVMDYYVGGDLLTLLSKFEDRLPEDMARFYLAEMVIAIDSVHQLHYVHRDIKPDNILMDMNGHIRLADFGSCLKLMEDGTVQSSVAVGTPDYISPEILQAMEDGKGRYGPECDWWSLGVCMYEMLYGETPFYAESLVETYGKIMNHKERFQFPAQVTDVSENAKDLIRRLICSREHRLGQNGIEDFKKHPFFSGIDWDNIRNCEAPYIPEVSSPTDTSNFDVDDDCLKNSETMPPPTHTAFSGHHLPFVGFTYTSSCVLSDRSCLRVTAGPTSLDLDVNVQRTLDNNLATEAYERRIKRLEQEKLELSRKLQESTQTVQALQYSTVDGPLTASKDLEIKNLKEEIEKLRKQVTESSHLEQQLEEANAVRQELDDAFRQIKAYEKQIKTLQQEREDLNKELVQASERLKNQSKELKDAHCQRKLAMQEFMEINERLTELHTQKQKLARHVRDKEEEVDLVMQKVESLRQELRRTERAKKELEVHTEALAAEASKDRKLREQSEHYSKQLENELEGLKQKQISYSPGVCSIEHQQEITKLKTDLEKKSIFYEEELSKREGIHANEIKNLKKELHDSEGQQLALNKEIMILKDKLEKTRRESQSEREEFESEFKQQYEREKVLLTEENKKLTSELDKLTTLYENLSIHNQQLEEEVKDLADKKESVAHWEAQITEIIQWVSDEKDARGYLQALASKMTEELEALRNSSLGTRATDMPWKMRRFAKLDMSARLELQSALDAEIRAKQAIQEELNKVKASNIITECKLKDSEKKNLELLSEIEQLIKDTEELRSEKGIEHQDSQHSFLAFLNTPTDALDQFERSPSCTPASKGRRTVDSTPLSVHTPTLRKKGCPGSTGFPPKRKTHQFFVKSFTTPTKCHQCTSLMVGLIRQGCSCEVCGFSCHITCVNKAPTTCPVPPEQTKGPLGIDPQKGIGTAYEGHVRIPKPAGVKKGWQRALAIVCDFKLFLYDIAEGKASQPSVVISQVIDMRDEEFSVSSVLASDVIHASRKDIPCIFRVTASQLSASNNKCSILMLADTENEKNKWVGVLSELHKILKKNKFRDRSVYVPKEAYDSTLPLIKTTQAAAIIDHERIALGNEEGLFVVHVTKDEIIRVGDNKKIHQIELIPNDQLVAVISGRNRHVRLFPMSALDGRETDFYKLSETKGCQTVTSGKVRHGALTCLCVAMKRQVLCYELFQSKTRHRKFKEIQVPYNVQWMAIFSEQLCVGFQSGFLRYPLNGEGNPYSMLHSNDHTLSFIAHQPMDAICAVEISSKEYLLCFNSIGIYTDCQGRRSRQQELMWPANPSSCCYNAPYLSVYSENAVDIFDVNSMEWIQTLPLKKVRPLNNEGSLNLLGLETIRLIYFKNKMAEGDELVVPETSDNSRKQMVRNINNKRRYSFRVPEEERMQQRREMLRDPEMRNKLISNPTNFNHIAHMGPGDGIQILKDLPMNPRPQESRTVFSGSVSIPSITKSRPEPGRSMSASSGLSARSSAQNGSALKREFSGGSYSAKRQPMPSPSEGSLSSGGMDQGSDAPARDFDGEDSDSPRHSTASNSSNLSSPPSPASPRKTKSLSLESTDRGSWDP
UniProt Q9NZT2: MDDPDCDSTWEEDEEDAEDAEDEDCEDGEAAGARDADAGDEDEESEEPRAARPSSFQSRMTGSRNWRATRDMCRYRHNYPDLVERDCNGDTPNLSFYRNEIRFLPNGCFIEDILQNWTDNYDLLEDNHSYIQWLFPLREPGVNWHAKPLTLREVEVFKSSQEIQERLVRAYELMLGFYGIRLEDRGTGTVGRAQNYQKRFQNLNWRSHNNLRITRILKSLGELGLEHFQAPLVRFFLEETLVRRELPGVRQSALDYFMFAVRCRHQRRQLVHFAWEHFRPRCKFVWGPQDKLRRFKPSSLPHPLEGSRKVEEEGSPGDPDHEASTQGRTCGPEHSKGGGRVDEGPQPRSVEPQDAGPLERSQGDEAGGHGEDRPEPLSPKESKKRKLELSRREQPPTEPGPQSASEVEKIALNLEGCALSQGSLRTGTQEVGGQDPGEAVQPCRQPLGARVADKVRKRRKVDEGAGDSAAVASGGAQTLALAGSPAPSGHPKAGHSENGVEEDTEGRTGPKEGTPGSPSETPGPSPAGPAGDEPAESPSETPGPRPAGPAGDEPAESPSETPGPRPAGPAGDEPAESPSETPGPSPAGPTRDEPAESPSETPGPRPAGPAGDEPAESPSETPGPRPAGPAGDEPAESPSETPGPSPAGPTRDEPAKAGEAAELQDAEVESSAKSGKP
UniProt Q6NYC8: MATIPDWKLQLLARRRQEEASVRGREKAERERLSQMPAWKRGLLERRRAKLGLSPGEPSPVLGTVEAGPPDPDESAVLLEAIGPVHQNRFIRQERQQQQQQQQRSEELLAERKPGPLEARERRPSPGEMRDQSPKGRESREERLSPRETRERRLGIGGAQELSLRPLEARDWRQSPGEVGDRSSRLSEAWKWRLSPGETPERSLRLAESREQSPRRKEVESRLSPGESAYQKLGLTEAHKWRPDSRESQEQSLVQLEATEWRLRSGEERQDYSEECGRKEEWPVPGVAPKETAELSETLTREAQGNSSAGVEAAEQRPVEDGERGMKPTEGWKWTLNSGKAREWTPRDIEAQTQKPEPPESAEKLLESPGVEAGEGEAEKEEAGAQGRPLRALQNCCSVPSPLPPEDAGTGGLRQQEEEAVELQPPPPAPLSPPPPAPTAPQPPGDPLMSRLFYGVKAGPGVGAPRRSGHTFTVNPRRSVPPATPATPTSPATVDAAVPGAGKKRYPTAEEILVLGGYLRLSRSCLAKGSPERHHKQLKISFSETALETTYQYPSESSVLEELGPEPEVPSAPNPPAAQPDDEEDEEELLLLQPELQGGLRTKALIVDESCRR
UniProt P59780: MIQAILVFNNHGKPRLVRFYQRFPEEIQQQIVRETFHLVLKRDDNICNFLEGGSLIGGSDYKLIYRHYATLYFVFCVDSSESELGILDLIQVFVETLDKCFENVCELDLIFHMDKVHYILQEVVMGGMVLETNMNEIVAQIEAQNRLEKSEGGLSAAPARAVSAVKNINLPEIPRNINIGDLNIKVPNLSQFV

Compound: Nc1nc2c(ncn2[C@@H]2O[C@H](COP(=O)(O)OP(=O)(O)OP(=O)(O)O)[C@@H](O)[C@H]2O)c(=O)[nH]1 [guanosine triphosphate]
Experiment: NP40-soluble protein abundance relative to vehicle (solubility fold change) (ratio); higher = more soluble protein in presence of GTP
Method in brief: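 Each value is a fold change relative to the detergent-processed vehicle, calculated per replicate from vsn-normalised intensities. Jurkat crude lysate received eight concentrations (0.1 to 10 mM) for 10 min at room temperature and 3 min at 37 °C, then was solubilised in 0.8% NP40 with benzonase (60 min, 4 °C). The ultracentrifuged supernatant was TMT-labelled and run by LC-MS/MS in three independent experiments.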

Target	NP40-soluble protein abundance (concentration: 0.1mM)	NP40-soluble protein abundance (concentration: 0.5mM)	NP40-soluble protein abundance (concentration: 1mM)	NP40-soluble protein abundance (concentration: 2mM)	NP40-soluble protein abundance (concentration: 4mM)	NP40-soluble protein abundance (concentration: 6mM)	NP40-soluble protein abundance (concentration: 8mM)	NP40-soluble protein abundance (concentration: 10mM)
A0A0A0MQR1|Q9Y4K4 (UniProt Q9Y4K4)	0.942 ± 0.021	0.985 ± 0.031	0.887 ± 0.03	0.9 ± 0.017	0.895 ± 0.026	0.887 ± 0.06	0.86 ± 0.044	0.879 ± 0.055
A0A087WXR7|Q5TBB1 (UniProt Q5TBB1)	0.893 ± 0.11	0.906 ± 0.1	0.906 ± 0.11	0.867 ± 0.12	0.854 ± 0.11	0.88 ± 0.11	0.866 ± 0.13	0.866 ± 0.12
A0A140T9L0|O15213 (UniProt O15213)	1.054 ± 0.0015	1.14 ± 0.018	1.07 ± 0.07	1.17 ± 0.015	1.14 ± 0.18	1.21 ± 0.093	1.28 ± 0.14	1.256 ± 0.012
A0A0C4DGA6|Q14527 (UniProt Q14527)	1.032 ± 0.0087	1.02 ± 0.02	0.9857 ± 0.0068	0.988 ± 0.033	0.996 ± 0.022	0.984 ± 0.016	0.981 ± 0.018	0.932 ± 0.017
A0A0R4J2F2|D6R9S8 and related entries (UniProt Q9NY35)	0.9726 ± 0.0073	0.958 ± 0.022	0.902 ± 0.013	0.95 ± 0.094	0.922 ± 0.017	0.923 ± 0.12	0.94193 ± 0.00026	0.968 ± 0.023
A2IDC6 and related entries (UniProt Q13084)	1.18 ± 0.25	1.3 ± 0.35	1.48 ± 0.56	1.5 ± 0.61	1.36 ± 0.54	1.39 ± 0.58	1.33 ± 0.58	1.21 ± 0.48
A0A087X038|A8K727 (UniProt Q9HB19)	0.938 ± 0.051	1 ± 0.083	0.943 ± 0.082	0.969 ± 0.065	0.984 ± 0.075	1.01 ± 0.091	1.03 ± 0.12	1.03 ± 0.095
A0A087X0Q9|Q9BVL4 (UniProt Q9BVL4)	1.06 ± 0.12	1.1 ± 0.068	1.01 ± 0.12	1.1 ± 0.2	1.05 ± 0.17	1.06 ± 0.19	1.01 ± 0.16	1.04 ± 0.22
A0A0G2JK44|P25440 and related entries (UniProt P25440)	0.984 ± 0.086	0.945 ± 0.061	0.97 ± 0.076	1.01 ± 0.1	1.09 ± 0.06	1.14 ± 0.078	1.21 ± 0.1	1.25 ± 0.1
A0A0A0MRJ0|Q5VT25 and related entries (UniProt Q5VT25)	0.998 ± 0.013	1.03 ± 0.049	1.17 ± 0.025	1.25 ± 0.12	1.25 ± 0.033	1.17 ± 0.078	1.27 ± 0.041	1.2 ± 0.048
A0A0A0MRN5|Q9NZT2 and related entries (UniProt Q9NZT2)	0.928 ± 0.042	0.925 ± 0.027	0.894 ± 0.041	0.904 ± 0.023	0.878 ± 0.033	0.876 ± 0.02	0.844 ± 0.048	0.898 ± 0.032
A0A0G2JHC2|Q6NYC8 (UniProt Q6NYC8)	0.952 ± 0.042	0.945 ± 0.047	1 ± 0.044	1 ± 0.08	1 ± 0.064	1.07 ± 0.092	1.13 ± 0.029	1.14 ± 0.064
A0A0A6YYH1|H0YLI7 and related entries (UniProt Q7Z6K5+P59780+H0YLI7)	1.04 ± 0.012	1.07 ± 0.045	1.06 ± 0.099	1.03 ± 0.044	0.986 ± 0.04	1.01 ± 0.076	0.989 ± 0.017	0.992 ± 0.049
